Construct, isoform or probe ends are uncertain for at least one entry. Results from cells or extracts need not show a direct contact.
Target: NF-kB p65 (RelA) in TNFa-treated A549 nuclear extract (UniProt Q04206)
Test: EMSA, p65 antibody supershift
Settings: TNFa 15 min extract, 50-fold self competitor competes; 2 ul nuclear extract with 1 ng 32P probe, 15 min at 37 C; 5% native PAGE; antibody preincubation 30 min at 37 C; protein in an extract; label: 32P end label (unlabeled as self competitor)

Chains of the proteins cited; added tags and fusions are not shown.
UniProt Q04206, whole entry: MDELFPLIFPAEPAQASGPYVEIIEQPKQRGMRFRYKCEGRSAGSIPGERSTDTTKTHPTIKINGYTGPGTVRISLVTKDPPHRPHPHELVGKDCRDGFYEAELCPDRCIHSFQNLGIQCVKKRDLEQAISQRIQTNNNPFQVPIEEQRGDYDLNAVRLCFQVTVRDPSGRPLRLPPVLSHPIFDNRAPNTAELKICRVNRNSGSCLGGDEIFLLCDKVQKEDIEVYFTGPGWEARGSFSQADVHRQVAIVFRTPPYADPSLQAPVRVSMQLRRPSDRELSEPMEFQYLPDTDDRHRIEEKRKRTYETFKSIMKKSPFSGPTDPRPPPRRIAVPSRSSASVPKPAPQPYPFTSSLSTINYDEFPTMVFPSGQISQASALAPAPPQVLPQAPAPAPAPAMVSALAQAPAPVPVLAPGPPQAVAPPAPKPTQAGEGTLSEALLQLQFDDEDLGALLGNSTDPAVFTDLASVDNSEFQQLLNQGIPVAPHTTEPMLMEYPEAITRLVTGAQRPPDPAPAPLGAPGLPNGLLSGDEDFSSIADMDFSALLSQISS

“GGGCCCGGGAAATTCCCCGGCG (double strand) [Optn. NF-kB]”: binds.
